Reference: article PMC7819943, “Rice protein-binding microarrays: a tool to detect cis-acting elements near promoter regions in rice”
The list shows a part of the results.

Chains of the proteins cited; added tags and fusions are not shown.
UniProt Q0JBA9, entry or part of it: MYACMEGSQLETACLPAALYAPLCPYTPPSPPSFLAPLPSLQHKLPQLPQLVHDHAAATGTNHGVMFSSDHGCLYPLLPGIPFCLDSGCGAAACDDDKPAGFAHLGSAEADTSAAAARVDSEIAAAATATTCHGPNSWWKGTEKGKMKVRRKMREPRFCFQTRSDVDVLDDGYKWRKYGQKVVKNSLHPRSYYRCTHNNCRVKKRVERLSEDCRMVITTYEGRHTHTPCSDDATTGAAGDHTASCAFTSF

Molecular target: OsWRKY34 (Oryza sativa, UniProt Q0JBA9 1-250)
Assay: protein-binding microarray (RPBM); PBS, 2% BSA, 51.3 ng/ul salmon testes DNA, 50 uM zinc acetate, 200 nM TF, 25 C, 1 h; high values mean tight binding
Conditions: protein: recombinant; tags: N-terminal polyhistidine and DsRed monomer fusion (pET32a); label: CyDye5-dUTP incorporated in the synthesized complementary strand; 3' TTTTT single-stranded linker to array surface; dsDNA, one strand shown
Outline: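 Binding signal here means per-feature fluorescence intensity in arbitrary units. The values were read on an Axon 4000B scanner after a custom Agilent array, double-stranded by primer extension with Cy5-dUTP, was incubated with 200 nM protein at 25 °C for 1 h in PBS with 2% BSA, salmon testes DNA and 50 µM zinc acetate, then washed. The proteins were transcription factors with an N-terminal polyhistidine tag and DsRed, expressed in E. coli BL21-CodonPlus and purified on Ni–NTA.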

Row | Sequence | binding signal
1 | CTATCCGTCTCTCCTAATTTTAGTCAGTTTTCCACGCGTTCGGAGTCACCTAGTGCAG | 10000 fluorescence intensity (a.u.)
2 | GTGGTTTGTGGGTGTTTGGATCGCATGCATTTGGTGTGAGCGGAGTCACCTAGTGCAG | 9240 fluorescence intensity (a.u.)
3 | ATCCACTAATTAGGCAATTTCCCGCTGTCAAGTATGCTACCGGAGTCACCTAGTGCAG | 8690 fluorescence intensity (a.u.)
4 | TCCTCTTCCACCAACACCTCCGGCGCCGCCATCGTCCACCCGGAGTCACCTAGTGCAG | 9480 fluorescence intensity (a.u.)
5 | AAGGACCCAGCTGTTCGCCACGTGTGCGTGTTGACTTCCACGGAGTCACCTAGTGCAG | 9780 fluorescence intensity (a.u.)
6 | TGTGTTGCAGCTGGCTATAAATTTATAGACCGTTGTTCATCGGAGTCACCTAGTGCAG | 8240 fluorescence intensity (a.u.)
7 | CGCCTTCCATTGACTTCAACGGATTCCTCATTCCTGTGACCGGAGTCACCTAGTGCAG | 8050 fluorescence intensity (a.u.)
8 | GCACTCCCTTCCGATTGTACTTGTGCTTGTAGTAATTCTTCGGAGTCACCTAGTGCAG | 9560 fluorescence intensity (a.u.)
9 | TCTCTCTTGCATACTGACAAGCAGAAATCCCCTTAATACACGGAGTCACCTAGTGCAG | 9080 fluorescence intensity (a.u.)
10 | CTCTCCGCCGCTCCCCGTTGCTACGACCGGCTGCCTCGTCCGGAGTCACCTAGTGCAG | 8480 fluorescence intensity (a.u.)
11 | GCCCACCCAGCTTCATCGGATCCGGCACGCGGCGACAATGCGGAGTCACCTAGTGCAG | 8670 fluorescence intensity (a.u.)
12 | CTCCACTGCCACTTCACTGATCGAGCTCACCTTTTCCTCTCGGAGTCACCTAGTGCAG | 10400 fluorescence intensity (a.u.)
13 | GTATGTCCATCTATCTCGCCGCCGCCGCCATTTTTGTTTCCGGAGTCACCTAGTGCAG | 12300 fluorescence intensity (a.u.)
14 | ACGTATTGTGCCAAGGTACTGTTCATGATGTATTGTATTACGGAGTCACCTAGTGCAG | 8040 fluorescence intensity (a.u.)
15 | TAGTCCGTTCTGTTGTCATCTACTACTCTTGTTTGTGTTTCGGAGTCACCTAGTGCAG | 16100 fluorescence intensity (a.u.)
16 | AAATAGCAGAACAAAAATATGTCACCTTTTTGCAACTTTCCGGAGTCACCTAGTGCAG | 9690 fluorescence intensity (a.u.)
17 | ATTATTCGTTTGCAAATATAATGTTTAGCTTATTCCCGAACGGAGTCACCTAGTGCAG | 8160 fluorescence intensity (a.u.)
18 | GCTTATGGGTCTCTTTACAGCTCTCGGGGCTATCGATTGACGGAGTCACCTAGTGCAG | 9150 fluorescence intensity (a.u.)
19 | ACAGGGTGTAGGGGCGTCTCAGGAGGCTATGCCTCTCCCACGGAGTCACCTAGTGCAG | 8450 fluorescence intensity (a.u.)
20 | CTTTGCATTTCATCTCGGTAGAACACCTGCCTAGCTTTCACGGAGTCACCTAGTGCAG | 11600 fluorescence intensity (a.u.)
21 | ATCCCCACCGTTGACCGAAGTTGACCTCCAAGAATCCTGACGGAGTCACCTAGTGCAG | 13800 fluorescence intensity (a.u.)

Copied from above: entries 11–13
Row | Sequence | binding signal
11 | GCCCACCCAGCTTCATCGGATCCGGCACGCGGCGACAATGCGGAGTCACCTAGTGCAG | 8670 fluorescence intensity (a.u.)
12 | CTCCACTGCCACTTCACTGATCGAGCTCACCTTTTCCTCTCGGAGTCACCTAGTGCAG | 10400 fluorescence intensity (a.u.)
13 | GTATGTCCATCTATCTCGCCGCCGCCGCCATTTTTGTTTCCGGAGTCACCTAGTGCAG | 12300 fluorescence intensity (a.u.)

(list continues)

Row | Sequence | binding signal
22 | GCTCTATCACTTCCATTTCAGTCCATTTAGCTTTCGGGCCCGGAGTCACCTAGTGCAG | 9090 fluorescence intensity (a.u.)
23 | ATCGTATTTTCAGCCCATGGTTGCGCGTAGTTTCGGCCCACGGAGTCACCTAGTGCAG | 8670 fluorescence intensity (a.u.)
24 | CACCCGCTCCCCTCCACTCGCAGACCCAACCCCTATAAATCGGAGTCACCTAGTGCAG | 8280 fluorescence intensity (a.u.)
25 | CTTTTTTTTGGTCAAAATCCTTTAGGTTTTATCAAATTTACGGAGTCACCTAGTGCAG | 8410 fluorescence intensity (a.u.)
26 | TCTCCTCTTCTTTTTCTTCCTTCCTTTTACTCGCTCGCTCCGGAGTCACCTAGTGCAG | 9930 fluorescence intensity (a.u.)
27 | GCCATGATGATTCCTTACCGCTGGGTGGGGCCCACACGTCCGGAGTCACCTAGTGCAG | 10200 fluorescence intensity (a.u.)
28 | CTCATCTTAAATTCTTGGTTGTGTTCGTTATTCCAGATTGCGGAGTCACCTAGTGCAG | 9080 fluorescence intensity (a.u.)
29 | TTCTAAATAGTTTATGGAATTCACACACACGTTCTCTCTACGGAGTCACCTAGTGCAG | 9410 fluorescence intensity (a.u.)
30 | CAGTCTCCTCTGATGCAGTCTCGTTCTCTGTTTCTTTTTGCGGAGTCACCTAGTGCAG | 10600 fluorescence intensity (a.u.)
31 | ACCCACCCACCCACCCGGTCTGTCTCCTAACCCCGGTCGCCGGAGTCACCTAGTGCAG | 12600 fluorescence intensity (a.u.)
32 | TGCACACATGATGCACATGTCGCGCGCGCTGCCTCGCCACCGGAGTCACCTAGTGCAG | 8950 fluorescence intensity (a.u.)
33 | CCTCACTCGATGCCACTCTTCTCTGACCTCTATCATCAGACGGAGTCACCTAGTGCAG | 8530 fluorescence intensity (a.u.)
34 | TGACATTGGCGCCATCCTTCATTGACTTGACGACCGCCATCGGAGTCACCTAGTGCAG | 11200 fluorescence intensity (a.u.)
35 | TATTGATGTATATTACTCCCACCTTTTTAAATATTTGACACGGAGTCACCTAGTGCAG | 8990 fluorescence intensity (a.u.)
36 | CGCTCTCTCTCTCCCATCTTGTGTCTCTTTCTTGTTTACTCGGAGTCACCTAGTGCAG | 10400 fluorescence intensity (a.u.)
37 | ATATATCCTCCCTTGCGGTGCCTTGGCAGTTTTCTCGATTCGGAGTCACCTAGTGCAG | 9280 fluorescence intensity (a.u.)
38 | TCCGTCTCCAATGACTCCCGATTCCTTTCTGTAATCTAATCGGAGTCACCTAGTGCAG | 8240 fluorescence intensity (a.u.)
39 | GCATCTCCATGGTCTCCTTGTCGACGCGGATCTCCTCCACCGGAGTCACCTAGTGCAG | 11000 fluorescence intensity (a.u.)
40 | CGCCTACGACTCTCTACATCTCTCCACCTGCATTACTACGCGGAGTCACCTAGTGCAG | 10100 fluorescence intensity (a.u.)
41 | CAGTGATGTTTTTGTGCTTAAAGAATGTACTTGGCCCAATCGGAGTCACCTAGTGCAG | 8210 fluorescence intensity (a.u.)
42 | CCTATACTTGCTCATAGCCTCGTCTCCTTCCTCTATTACTCGGAGTCACCTAGTGCAG | 8880 fluorescence intensity (a.u.)
